Experimental data published in PubChem BioAssay AID2685 (National Center for Advancing Translational Sciences (NCATS), 2010).
This is one part of the list. The main result of the screen is listed elsewhere. These columns were measured beside it and carry no call. Most of these compounds were active or inconclusive in the main read-out, so they are no random draw. The note in brackets gives the kind of curve behind each potency; many fits are weak.

Test: qHTS Assay for Lipid Storage Modulators in Drosophila S3 Cells;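 on cell number change: cells counted by Cell Tracker Red CMTPX staining in the red channel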
Details: BODIPY lipid droplet fluorescence, 18-24 h; for cell number change: measured here: cell count max response, cells fed with added oleic acid
Method in brief: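 Drosophila S3 cells got compounds at several concentrations plus oleic acid (400 uM solution). Laser-scanning cytometry with 488 nm excitation read lipid droplets at 500-530 nm and cells at 575-640 nm. Percent activity was relative to 20 uM Triacsin C.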

[1] = measured here: cell number channel AC50, cells fed with added oleic acid
[2] = measured here: lipid fluorescence (Fed channel) AC50, cells fed with added oleic acid

Row | SMILES | cell number change [%] | AC50 [1] | AC50 [2]
1 | COC(=O)c1ccccc1NS(=O)(=O)c1c(C)noc1C | 69.3 | 29.1 µM [rising, single point] | 4.11 µM [rising, full curve]
2 | CCOC(=O)Cc1cc(=O)[nH]c(=O)[nH]1 | 11.3 |  | 1.03 µM [rising, partial curve, poor fit]
3 | COC(=O)C1=C(C)NC(C)=C(C(=O)OC)C1C(=O)OCC(=O)N1c2ccccc2CC1C (stereo not given) | 6.54 |  | 0.58 µM [rising, single point]
4 | O=C(NCCOc1ccccc1)c1ccccc1 |  | 2.06 µM [rising, partial curve] | 6.51 µM [rising, single point]
5 | O=C(NCCCc1ccncc1)C1CCC(=O)N(Cc2cccc(F)c2)C1 (stereo not given) |  |  | 4.61 µM [falling, single point]
6 | CCOC(=O)C(CC)/C(C)=N/NC(=O)c1ccccc1[N+](=O)[O-] (stereo not given) | -2.08 | 0.651 µM [rising, single point] | 0.651 µM [rising, partial curve, poor fit]
7 | CCCNC(=O)COC(=O)c1ccc(S(=O)(=O)N2CCCCCC2)cc1 | 40.8 |  | 6.51 µM [falling, single point]
8 | CS(=O)(=O)c1ccc(NC(=O)CCN2C(=O)C3CCCCC3C2=O)cc1 (stereo not given) | 2.03 |  | 11.6 µM [rising, partial curve]
9 | O=C(CSc1ccc(-c2ccc(F)cc2)nn1)NCCc1ccccc1 | 25.6 |  | 
10 | CC1(C)Cc2c(C#N)c(OCC(=O)c3ccccc3)nc(-c3ccoc3)c2CO1 | 2.52 |  | 4.11 µM [rising, full curve, poor fit]
11 | O=c1[nH]c2ccccc2cc1CN(CC1CCCO1)S(=O)(=O)c1ccc(Cl)cc1 (stereo not given) | 30.3 |  | 
12 | O=Nc1c(O)n(Cc2cccc(Cl)c2)c2ccccc12 | -2.53 |  | 4.61 µM [rising, partial curve, poor fit]
13 | COc1ccc(S(=O)(=O)N2CCCCC2)cc1NC(=O)C1CSC2(C)CCC(=O)N12 (stereo not given) | -10.5 |  | 29.1 µM [falling, single point]
14 | CC(C)OC(=O)CCc1nc2ccccc2[nH]c1=O | -3.68 | 2.06 µM [falling, partial curve] | 
15 | Cc1ccc(OCC(=O)N2CCN(C(=O)c3cccc(F)c3)CC2)cc1 | 90.1 | 29.1 µM [rising, single point] | 
16 | O=C(COC(=O)c1ccc(F)cc1Cl)Nc1cccc(S(=O)(=O)N2CCOCC2)c1 | 20.1 |  | 29.1 µM [falling, single point]
17 | Cc1ccc(-c2csc3ncnc(SCC(=O)c4ccc5c(c4)OCCO5)c23)cc1 |  |  | 0.58 µM [falling, full curve]
18 | Clc1ccc(-c2nc(/C=N/N3CCOCC3)c3ccccn23)cc1 | -42.1 | 29.1 µM [falling, single point] | 
19 | C/C(=N\N1CCN(c2ccccc2)CC1)c1ccccc1O | 12.4 |  | 29.1 µM [rising, single point]

Row | SMILES | cell number change [%] | AC50 [1] | AC50 [2]
20 | CC1CCC(C(C)C)C(OC(=O)Cn2c(-c3ccc(Cl)cc3)[n+](C)c3ccccc32)C1 (stereo not given) | -62.6 | 8.2 µM [falling, partial curve, poor fit] | 6.51 µM [falling, partial curve]
21 | O=C(c1noc2c1CCCC2)N1CCN(c2ccc(F)cc2)CC1 | -0.133 |  | 
22 | CCC(=O)N=C1SC2CS(=O)(=O)CC2N1c1cccc(OC)c1 (stereo not given) | -19.1 |  | 0.146 µM [falling, full curve]
23 | Cc1ccc(NC2CCCN(C(=O)CSc3ccccn3)C2)cc1C (stereo not given) | 12.5 |  | 29.1 µM [rising, single point]
24 | COc1ccc(CCNC(=O)COC(=O)C2CC2)cc1 | -78.5 |  | 
25 | CC1CCN(c2ccccc2NC(=O)c2cc([N+](=O)[O-])ccc2N2CCOCC2)CC1 | -35.4 | 23.1 µM [falling, partial curve] | 
26 | COc1ccc(CC(=O)NCc2nc(-c3ccccc3)no2)cc1 | 19.3 | 6.51 µM [falling, single point] | 6.51 µM [falling, single point]
27 | COc1ccccc1C(=O)COC(=O)CCNS(=O)(=O)c1ccc(C)c(C)c1 | -42.7 | 29.1 µM [falling, single point] | 14.6 µM [rising, partial curve]
28 | CCSc1nnc(NC(=O)NC2CCCCC2)s1 | -53.9 | 0.82 µM [falling, full curve, poor fit] | 4.61 µM [falling, full curve]
29 | COc1cccc(C(C(=O)NC2CCCC2)N(CC2CCCO2)C(=O)Cc2cccs2)c1 (stereo not given) | -24 |  | 11.6 µM [falling, partial curve]
30 | CCOC(=O)CN1C(=O)COc2ccc(Cl)cc21 | -40.1 |  | 
31 | CCO[C@@H]1OC(C(=O)N2CCN(Cc3ccc4c(c3)OCO4)CC2)=C[C@H](C2CCCCC2)[C@H]1CCCO | -34.4 | 23.1 µM [falling, single point] | 20.6 µM [falling, partial curve]
32 | CCN(CC)C(=O)COc1ccc(N(C)S(=O)(=O)c2ccc(NC(C)=O)cc2)cc1 | 1.28 |  | 0.58 µM [rising, single point]
33 | CCOC(=O)N=Nc1c2ccccc2c2nc3no[nH]c3nc12 | -17.6 | 6.51 µM [falling, single point] | 2.06 µM [falling, full curve]
34 | CC(=O)c1ccc(NC(=S)NN2C(C)CCCC2C)cc1 (stereo not given) | 52.2 | 1.03 µM [rising, full curve, poor fit] | 0.651 µM [rising, full curve, poor fit]
35 | COc1cccc(OCC(=O)NN=C2c3ccccc3-c3ccccc32)c1 | 5.46 |  | 
36 | CC1=CCC2COC(c3ccc[n+](Cc4ccccc4)c3)C1C2 (stereo not given) | 7.04 |  | 2.59 µM [rising, single point]
37 | CCN(Cc1ccccc1)C(=O)c1cc(-c2ccc(OC)c(OC)c2)nc2ccccc12 | 15.1 |  | 18.4 µM [falling, single point]

Single records, from the list above:
COc1ccc(CC(=O)NCc2nc(-c3ccccc3)no2)cc1 in the list: cell number change [%]: 19.3; AC50 [1]: 6.51 µM [falling, single point]; AC50 [2]: 6.51 µM [falling, single point]
CC1=CCC2COC(c3ccc[n+](Cc4ccccc4)c3)C1C2 (stereo not given) in the list: cell number change [%]: 7.04; AC50 [2]: 2.59 µM [rising, single point]
